# Data taken from paper doi:10.1101/2022.04.06.487319 (bioRxiv, 2022).
# These are yes or no findings as the source states them, for the method shown. In cells and extracts the contact can be indirect. Some binding calls cover weakened binding; strength is not graded here. Where a sequence is shown, tags or fusion partners need not be part of it.
# T1: GFP-Mek1 (pGAL1::GFP-MEK1) (Saccharomyces cerevisiae) (UniProt P24719)
# T1 sequence: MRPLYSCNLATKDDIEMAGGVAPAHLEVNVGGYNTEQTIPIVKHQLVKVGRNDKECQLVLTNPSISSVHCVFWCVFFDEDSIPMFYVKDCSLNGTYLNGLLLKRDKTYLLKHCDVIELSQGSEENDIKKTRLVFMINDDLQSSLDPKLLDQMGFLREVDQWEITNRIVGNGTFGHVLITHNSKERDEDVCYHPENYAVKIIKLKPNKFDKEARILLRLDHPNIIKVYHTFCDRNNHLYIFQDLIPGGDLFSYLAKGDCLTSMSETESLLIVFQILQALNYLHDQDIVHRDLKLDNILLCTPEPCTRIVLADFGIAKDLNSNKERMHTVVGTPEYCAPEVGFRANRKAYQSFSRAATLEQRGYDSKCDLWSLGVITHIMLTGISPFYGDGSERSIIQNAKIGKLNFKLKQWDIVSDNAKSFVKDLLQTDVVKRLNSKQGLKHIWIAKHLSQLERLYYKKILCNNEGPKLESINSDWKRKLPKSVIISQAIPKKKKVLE
# Target: T1, GFP-Mek1 (pGAL1::GFP-MEK1) (Saccharomyces cerevisiae)
# Assay: co-IP
binder,measurement,value
"Hop1 (pGAL1::HOP1), untagged (protein, UniProt P20050 1-605) MSNKQLVKPKTETKTEITTEQSQKLLQTMLTMSFGCLAFLRGLFPDDIFVDQRFVPEKVEKNYNKQNTSQNNSIKIKTLIRGKSAQADLLLDWLEKGVFKSIRLKCLKALSLGIFLEDPTDLLENYIFSFDYDEENNVNINVNLSGNKKGSKNADPENETISLLDSRRMVQQLMRRFIIITQSLEPLPQKKFLTMRLMFNDNVDEDYQPELFKDATFDKRATLKVPTNLDNDAIDVGTLNTKHHKVALSVLSAATSSMEKAGNTNFIRVDPFDLILQQQEENKLEESVPTKPQNFVTSQTTNVLGNLLNSSQASIQPTQFVSNNPVTGICSCECGLEVPKAATVLKTCKSCRKTLHGICYGNFLHSSIEKCFTCIFGPSLDTKWSKFQDLMMIRKVFRFLVRKKKGFPASITELIDSFINVEDQNNEVKERVAFALFVFFLDETLCLDNGGKPSQTIRYVTSSVLVDVKGIVIPNTRKQLNVNHEYKWHFTTSSPKAESFYQEVLPNSRKQVESWLQDITNLRKVYSEALSPSSTLQELDLNSSLPTQDPIISGQKRRRYDLDEYLEEDKSSVVNDTIKAKDFDESVPAKIRKISVSKKTLKSNW",binding,binds
